Construct, isoform or probe ends are uncertain for at least one entry. At least one verdict rests on a figure or table, not on a statement of the authors. Where a protein sequence is shown, tags need not be part of it.
How the values were obtained:
Assay in all cases: EMSA
ELF3 (human) = target: T1, ELF3 (human) (UniProt P78545); details: EMSA conditions not printed (as previously described, ref 5); protein stock in 10 mM Tris pH 7.9, 0.5 mM EDTA, 200 mM KCl, 1 mM DTT, 10% glycerol; recombinant protein; residues 1-371; protein details: N-term 6xHis
T1 sequence (looked up): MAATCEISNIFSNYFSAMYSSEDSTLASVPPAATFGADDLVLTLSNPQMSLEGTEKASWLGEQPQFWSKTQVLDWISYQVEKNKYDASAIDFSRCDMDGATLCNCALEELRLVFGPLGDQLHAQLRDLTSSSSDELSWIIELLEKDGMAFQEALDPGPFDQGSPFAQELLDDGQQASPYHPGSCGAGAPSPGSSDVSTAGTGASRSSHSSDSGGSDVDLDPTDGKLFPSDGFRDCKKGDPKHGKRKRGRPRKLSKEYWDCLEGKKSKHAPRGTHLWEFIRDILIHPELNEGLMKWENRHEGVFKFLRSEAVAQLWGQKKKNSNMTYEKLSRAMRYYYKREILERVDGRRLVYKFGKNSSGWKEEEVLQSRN

EHF (human) = target: T2, EHF (human) (UniProt Q9NZC4); details: EMSA conditions not printed (as previously described, ref 5); protein stock in 10 mM Tris pH 7.9, 0.5 mM EDTA, 200 mM KCl, 1 mM DTT, 10% glycerol; recombinant protein; residues 1-300; protein details: N-term 6xHis
T2 sequence (looked up): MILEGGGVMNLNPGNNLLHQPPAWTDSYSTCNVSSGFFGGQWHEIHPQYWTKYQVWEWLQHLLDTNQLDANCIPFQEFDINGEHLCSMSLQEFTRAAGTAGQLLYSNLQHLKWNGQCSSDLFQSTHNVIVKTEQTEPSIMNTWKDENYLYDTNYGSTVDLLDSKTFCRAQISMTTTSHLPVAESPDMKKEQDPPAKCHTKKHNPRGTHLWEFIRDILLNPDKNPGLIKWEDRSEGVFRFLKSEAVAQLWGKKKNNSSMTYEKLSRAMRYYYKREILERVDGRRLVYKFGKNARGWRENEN

ELF5 (human) = system: T3, ELF5 (human); details: EMSA conditions not printed (as previously described, ref 5); protein stock in 10 mM Tris pH 7.9, 0.5 mM EDTA, 200 mM KCl, 1 mM DTT, 10% glycerol; recombinant protein; residues 1-255; protein details: N-term 6xHis
T3 sequence (looked up): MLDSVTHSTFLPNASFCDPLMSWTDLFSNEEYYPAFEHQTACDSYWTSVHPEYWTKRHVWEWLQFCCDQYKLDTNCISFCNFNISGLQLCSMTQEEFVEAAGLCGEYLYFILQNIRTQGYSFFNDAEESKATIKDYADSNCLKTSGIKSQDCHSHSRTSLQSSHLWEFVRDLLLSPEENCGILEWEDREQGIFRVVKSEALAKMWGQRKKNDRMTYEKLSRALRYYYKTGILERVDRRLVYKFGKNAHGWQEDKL

ELK3 (human) = target: T4, ELK3 (human) (UniProt P41970); details: EMSA conditions not printed (as previously described, ref 5); protein stock in 10 mM Tris pH 7.9, 0.5 mM EDTA, 200 mM KCl, 1 mM DTT, 10% glycerol; recombinant protein; residues 1-407; protein details: N-term 6xHis
T4 sequence (looked up): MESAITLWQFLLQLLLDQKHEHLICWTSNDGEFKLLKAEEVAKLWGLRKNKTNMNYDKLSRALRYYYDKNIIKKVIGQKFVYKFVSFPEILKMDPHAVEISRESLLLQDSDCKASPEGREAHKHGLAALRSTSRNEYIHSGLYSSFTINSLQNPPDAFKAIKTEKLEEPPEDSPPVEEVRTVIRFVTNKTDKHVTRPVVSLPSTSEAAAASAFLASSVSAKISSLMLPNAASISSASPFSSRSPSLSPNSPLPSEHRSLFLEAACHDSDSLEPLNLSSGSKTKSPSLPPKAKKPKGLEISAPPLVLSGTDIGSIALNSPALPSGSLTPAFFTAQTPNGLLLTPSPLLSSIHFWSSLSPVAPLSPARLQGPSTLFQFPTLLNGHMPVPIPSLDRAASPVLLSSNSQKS

ETS2 (human) = target: T5, ETS2 (human) (UniProt P15036); details: EMSA conditions not printed (as previously described, ref 5); protein stock in 10 mM Tris pH 7.9, 0.5 mM EDTA, 200 mM KCl, 1 mM DTT, 10% glycerol; recombinant protein; residues 1-469; protein details: N-term 6xHis
T5 sequence (looked up): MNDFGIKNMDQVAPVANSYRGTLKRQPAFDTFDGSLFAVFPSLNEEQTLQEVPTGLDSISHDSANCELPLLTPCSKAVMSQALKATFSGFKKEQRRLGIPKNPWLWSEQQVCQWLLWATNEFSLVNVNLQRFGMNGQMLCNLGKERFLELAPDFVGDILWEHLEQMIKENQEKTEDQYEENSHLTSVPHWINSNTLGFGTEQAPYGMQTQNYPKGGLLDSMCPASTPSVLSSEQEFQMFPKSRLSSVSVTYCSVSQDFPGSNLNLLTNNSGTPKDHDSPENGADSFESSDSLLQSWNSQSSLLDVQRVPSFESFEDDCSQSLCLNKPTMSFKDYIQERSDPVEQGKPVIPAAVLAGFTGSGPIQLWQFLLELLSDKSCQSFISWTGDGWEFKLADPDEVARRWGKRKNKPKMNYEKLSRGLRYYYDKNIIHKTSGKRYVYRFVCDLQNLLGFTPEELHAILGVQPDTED

Measured: binding result

GCCACGGCCCAGGAAGTGACTCACCCACCCTGATG (double strand) [ETS consensus EMSA probe]
binds: ELF3 (human) | EHF (human) | ELF5 (human) | ELK3 (human) | ETS2 (human)

Reference: PMC4338625
